Experimental data from article PMC8047169.
No constants are given. Whether binding was seen depends on the method and setting. Where a sequence is shown, tags or fusion partners need not be part of it.

What was measured:
[1] = molecular target: T1, His-CowN (Gluconacetobacter diazotrophicus CowN, His-tagged, refolded, monomeric fraction) (Gluconacetobacter diazotrophicus) (UniProt A9H4F6); assay: pull-down; His-CowN on Ni-NTA resin, 10 min incubation, three washes; 50 mM Tris pH 8, 60 mM NaCl, 1 mM DT; 2.5 μM MoFeP, 15 μM FeP, 15 μM CowN; nonturnover and turnover conditions with CO; SDS-PAGE; both purified
T1 sequence: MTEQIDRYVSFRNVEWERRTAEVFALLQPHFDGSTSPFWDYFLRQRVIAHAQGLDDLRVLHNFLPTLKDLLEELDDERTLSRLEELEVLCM

[2] = molecular target: molybdenum-iron protein (MoFeP) of Gluconacetobacter diazotrophicus Mo-nitrogenase (Gluconacetobacter diazotrophicus); assay: cross-linking; EDC 12.5 mM, 30 min; 50 mM HEPES pH 8, 60 mM NaCl, 5 mM DT; 2.5 μM MoFeP, 15 μM FeP, 15 μM CowN; nonturnover and turnover (5 mM MgCl2, 5 mM ATP) conditions with 0.1 atm CO; SDS-PAGE; both purified

“molybdenum-iron protein (MoFeP) of Gluconacetobacter diazotrophicus Mo-nitrogenase (complex)” was tested. Which binding [1] did it give?
Its binding is “no binding (tested: 15 μM CowN, 2.5 μM MoFeP)”.

B1: His-CowN (Gluconacetobacter diazotrophicus CowN, His-tagged, refolded, monomeric fraction) (protein, UniProt A9H4F6 1-91)
chain: T1 sequence
Which binding [2] does the source give for B1 here?
The binding was “no binding (tested: 15 μM CowN, 2.5 μM MoFeP)”.
